Experimental data as given in publication PMC9209722.
Results are given in words; binding and its absence hold for the method and conditions named. In cells and extracts the contact can be indirect. Some entries that bind do so weakly or less than the wild type. Tags and fused reporters may be left off the sequences shown.

By UniProt entry, the sequences of proteins in these tests, tags left out.
UniProt P23804: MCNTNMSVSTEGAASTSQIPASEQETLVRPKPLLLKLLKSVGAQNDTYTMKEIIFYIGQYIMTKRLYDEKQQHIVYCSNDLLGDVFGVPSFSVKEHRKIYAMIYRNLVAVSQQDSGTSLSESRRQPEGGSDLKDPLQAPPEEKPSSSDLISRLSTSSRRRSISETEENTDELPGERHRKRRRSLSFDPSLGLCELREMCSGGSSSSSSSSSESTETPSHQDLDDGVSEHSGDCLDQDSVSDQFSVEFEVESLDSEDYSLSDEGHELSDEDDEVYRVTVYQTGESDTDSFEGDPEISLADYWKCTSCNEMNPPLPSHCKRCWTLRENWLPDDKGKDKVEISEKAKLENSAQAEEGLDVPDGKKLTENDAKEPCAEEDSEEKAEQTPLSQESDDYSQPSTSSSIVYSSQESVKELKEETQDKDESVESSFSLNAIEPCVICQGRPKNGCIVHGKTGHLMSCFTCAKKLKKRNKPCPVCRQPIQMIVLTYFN

Molecular target: Murine double minute 2 (MDM2), Flag-tagged mouse MDM2 (mouse) (UniProt P23804)
Assay: co-IP; 293T cells transfected with the indicated constructs, treated with palmitic acid (0.4 mM) for 24 h, lysed; immunoprecipitation with Flag-tagged or Myc-tagged magnetic beads at 4°C overnight; Western blotting

- binding: binds
B1: Six-transmembrane epithelial antigen of prostate 4 (STEAP4), tagged mouse STEAP4 (protein, UniProt Q923B6 1-470)
chain: MEKAHADEFPLTTDSSEKQGVVCIFGTGDFGKSLGLKMLQCGYSIVFGSRNPQVSSLLPRGAEVLSYSEAASKSDIIILAMHREHYDSLTELVDYLKGKVLVDVSNNRKINQYPESNAEYLAQLEPGAHVVKAFNTISAWALQSGTLDASRQVFVCGNDSKAKQRVMDIARTLGLTPLDQGSLMAASEIENYPLQLFPMWRFPFYLSSVLCVFFFVYCAIREVIYPYVNGKTDATYRLAISIPNRVFPITALILLALVYLPGILAAILQLYRGTKYRRFPNWLDHWMLCRKQLGLVALGFAFLHVIYTLVIPIRYYVRWRLRNATITQALTNKDSPFITSYAWINDSYLALGILGFFLFLLLGITSLPSVSNMVNWREFRFVQSKLGYLTLVLCTAHTLVYGGKRFLSPSILRWSLPSAYILALVIPCAVLVLKCILIMPCIDKTLTRIRQGWERNSKYTQSALNGKSDI
